For at least one compound, name, drawing or mass did not settle the structure.
Assays:
[1] = tested on: Candida parapsilosis (C. Parap.1-100-0022); experiment: Zones of inhibition of impregnated device segments, modified Kirby-Bauer technique; type: cell-based
Protocol: (§1) In Vitro antimicrobial activity. The antimicrobial activity of impregnated catheters was evaluated in duplicate by a modified Kirby-Bauer technique. BBL Mueller Hinton II agar plates (obtained from Fisher Scientific) were inoculated with 0.5 McFarland of the appropriate microorganism (hospital isolates from the MD Anderson Cancer Center). Then 10 mm segments of impregnated devices were embedded in the inoculated plates and placed in an incubator at about 37° C. for at least 18 hours. Zones of inhibition were measured perpendicular to the long axis of the device.
(§2) Anti-microbial activity of GND-ETT and GND-UC segments was assessed by modified Kirby-Bauer method. Segments were embedded in Mueller Hinton agar plates inoculated with one of the following organisms: Candida albicans (CA), vancomycin resistant enterococci (VRE), E. coli (EC), Candida parapsilosis(CP), methicillin resistant S. aureus (MRSA) or Pseudomonas aeruginosa (PS). Plates were incubated at 37° C. Zones of inhibition (ZOI) created by impregnated segments were measured in mm.
(§3) GND-ETT and GND-UC were immersed in sterile pooled bronchoalveolar lavage (BAL) or urine, respectively, and incubated at 37° C. BAL and urine were changed weekly and ZOI were determined in duplicate at weekly intervals.

[2] = tested on: Methicillin resistant Staph. aureus (MRSA2066); experiment: as above; type: cell-based
Protocol: as §1, §2, §3

[3] = Silk Suture, duplicate (Table 5)

Row | Structure (SMILES) | Zones of Inhibition (in mm) against C. Parap.1-100-0022 ([1]; Si-catheter, duplicate) | Zones of Inhibition (in mm) against C. Parap.1-100-0022 [1, 3] | Zones of Inhibition (in mm) against MRSA2066 ([2]; Si-catheter, duplicate) | Zones of Inhibition (in mm) against MRSA2066 [2, 3]
1 | CN(C)c1ccc(C(=C2C=CC(=[N+](C)C)C=C2)c2ccc(N(C)C)cc2)cc1.[OH-] [GV^+OH^−] | 19:19 mm | 13:14 mm | 18:19 mm | 17:17 mm
2 | CN(C)c1ccc(C(=C2C=CC(=[N+](C)C)C=C2)c2ccc(N(C)C)cc2)cc1.[O-]CC(O)CO [GV^♯Glycerin^−] | 18:18 mm | 9:9 mm | 19:20 mm | 13:14 mm
3 | CN(C)c1ccc(C(=C2C=CC(=[N+](C)C)C=C2)c2ccc(N(C)C)cc2)cc1.[S-]c1nc2ccccc2s1 [GV^♯MBT^−] | 12:12 mm | 0:0 mm | 13:13 mm | 8:8 mm
4 | CN(C)c1ccc(C(=C2C=CC(=[N+](C)C)C=C2)c2ccc(N(C)C)cc2)cc1.C[O-] [GV^♯OCH3^−] | 25:25 mm | 10:13 mm | 18:19 mm | 15:15 mm
5 | CN(C)c1ccc(C(=C2C=CC(=[N+](C)C)C=C2)c2ccc(N(C)C)cc2)cc1.O=C(Nc1ccc(Cl)c(Cl)c1)c1cc(Cl)ccc1[O-] [GV^♯TCSA^−] | 11:11 mm | 10:10 mm | 14:14 mm | 12:13 mm
